Source: patent US20250154171A1, “RAS INHIBITORS” (Revolution Medicines, Inc., priority 2023, published 2025)
Some entries share one result that the patent states for a list of compounds.

Chains of the proteins cited; added tags and fusions are not shown. Lines headed by an entry give the natural chain unless they say otherwise; changes in a name come on top. Residues count along the entry.
UniProt P01116, 1-188 isoform P01116-2 G12V: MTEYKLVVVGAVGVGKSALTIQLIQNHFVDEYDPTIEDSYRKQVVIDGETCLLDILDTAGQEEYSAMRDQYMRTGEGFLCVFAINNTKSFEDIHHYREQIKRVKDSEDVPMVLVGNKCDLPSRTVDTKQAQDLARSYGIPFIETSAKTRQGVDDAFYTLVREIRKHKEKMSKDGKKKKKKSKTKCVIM
UniProt P62937, whole entry: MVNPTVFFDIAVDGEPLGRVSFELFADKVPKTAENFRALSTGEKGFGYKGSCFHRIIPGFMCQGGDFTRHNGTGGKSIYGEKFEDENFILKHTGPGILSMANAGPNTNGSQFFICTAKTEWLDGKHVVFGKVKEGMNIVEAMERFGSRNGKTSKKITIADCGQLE

Key:
K-RasG12V = K-RasG12V (Homo sapiens, UniProt P01116+P62937, G12V); test: Disruption of BRAF RBD interaction with K-Ras (TR-FRET / MOA assay), K-RasG12V; type: biochemical; settings: TR-FRET with cyclophilin A and GST-BRAF RBD, read-out: IC50 with respect to K-RasG12V (disruption of BRAF RBD interaction)
Capan-1 (K-Ras G12V) = test: CellTiter-Glo cell viability assay, Capan-1; type: cell-based, human; settings: 5-day treatment, Capan-1 versus A375

Structure (SMILES) | IC50 (K-RasG12V) [nM] | decrease in cell viability with respect to KRAS G12V (Capan-1) versus wild-type KRAS (A375) (Capan-1 (K-Ras G12V))
CO[C@@H](C)c1ncc(N2CCN(C3CC3)CC2)cc1-c1c2c3cc(ccc3n1CCOC1CCOCC1)-c1csc(n1)[C@@H](N1CC3(COC3)C1)[C@H](NC(=O)[C@H]1OC[C@@H]1C)C(=O)N1CCC[C@H](N1)C(=O)OCC(C)(C)C2 (racemic) [Example A410] | < 1000 | greater decrease in cell viability
CO[C@@H](C)c1ncccc1-c1c2c3cc(ccc3n1CCO[C@H]1CCOC(C)(C)C1)-c1csc(n1)[C@@H](N1CCCC1)[C@H](NC(=O)[C@@H]1OC[C@@H]1C)C(=O)N1CCC[C@H](N1)C(=O)OCC(C)(C)C2 (racemic) [Example A411] | < 1000 | greater decrease in cell viability
CO[C@@H](C)c1ncccc1-c1c2c3cc(ccc3n1CCO[C@H]1CCOC(C)(C)C1)-c1csc(n1)[C@@H](N1CCCC1)[C@H](NC(=O)[C@H]1OC[C@@H]1C)C(=O)N1CCC[C@H](N1)C(=O)OCC(C)(C)C2 (racemic) [Example A412] | < 1000 | greater decrease in cell viability
CO[C@@H](C)c1ncccc1-c1c2c3cc(ccc3n1CCO[C@H]1CCOC(C)(C)C1)-c1csc(n1)[C@@H](N1CC3(COC3)C1)[C@H](NC(=O)[C@H]1[C@H](C)[C@@H]1C)C(=O)N1CCC[C@H](N1)C(=O)OCC(C)(C)C2 (racemic) [Example A413] | < 1000 | greater decrease in cell viability
CO[C@@H](C)c1ncc(N2CCN(C3CC3)CC2)cc1-c1c2c3cc(ccc3n1CCO[C@H]1CCOC(C)(C)C1)-c1csc(n1)[C@@H](OCC(F)F)[C@H](NC(=O)[C@@H]1[C@@H](C)[C@H]1c1ccccn1)C(=O)N1N[C@H](C(=O)OCC(C)(C)C2)C2CC1C2 (racemic) [Example A414] | < 1000 | greater decrease in cell viability
CO[C@@H](C)c1ncc(N2CCN(C3CC3)CC2)cc1-c1c2c3cc(ccc3n1CCO[C@H]1CCOC(C)(C)C1)-c1csc(n1)[C@@H](OCC(F)F)[C@H](NC(=O)[C@@H]1[C@@H](C)[C@H]1c1cocn1)C(=O)N1N[C@H](C(=O)OCC(C)(C)C2)C2CC1C2 (racemic) [Example A415] | < 1000 | greater decrease in cell viability
CO[C@@H](C)c1ncc(N2CCN(C3CC3)CC2)cc1-c1c2c3cc(ccc3n1CCOC1CCOCC1)-c1csc(n1)[C@@H](N1CC3(CCS3(=O)=O)C1)[C@H](NC(=O)[C@H]1[C@H](C)[C@@H]1C)C(=O)N1CCC[C@H](N1)C(=O)OCC(C)(C)C2 (racemic) [Example A416] | < 1000 | greater decrease in cell viability
CO[C@@H](C)c1ncc(N2CCN(C3CC3)CC2)cc1-c1c2c3cc(ccc3n1CCOC1CCOCC1)-c1csc(n1)[C@@H](N1CC3(CCS3(=O)=O)C1)[C@H](NC(=O)C13CC(C1)[C@H](C)O3)C(=O)N1CCC[C@H](N1)C(=O)OCC(C)(C)C2 (racemic) [Example A417] | < 1000 | greater decrease in cell viability
CO[C@@H](C)c1ncc(N2CCN(C3CC3)CC2)cc1-c1c2c3cc(ccc3n1CCOC1CCOCC1)-c1csc(n1)[C@@H](N1CC3(CCS3(=O)=O)C1)[C@H](NC(=O)C13CC(C1)[C@@H](C)O3)C(=O)N1CCC[C@H](N1)C(=O)OCC(C)(C)C2 (racemic) [Example A418] | < 1000 | greater decrease in cell viability

The next lines start with results.

IC50 (K-RasG12V) [nM] | Structure (SMILES) | decrease in cell viability with respect to KRAS G12V (Capan-1) versus wild-type KRAS (A375) (Capan-1 (K-Ras G12V))
< 1000 | CO[C@@H](C)c1ncccc1-c1c2c3cc(ccc3n1C1COC1)-c1csc(n1)[C@@H](N1CC3(COC3)C1)[C@H](NC(=O)C13CC(C1)[C@@H](C)O3)C(=O)N1N[C@H](C(=O)OCC(C)(C)C2)C2CC1C2 (racemic) [Example A419] | greater decrease in cell viability
< 1000 | CO[C@@H](C)c1ncc(C2CCN(C3CC3)CC2)cc1-c1c2c3cc(ccc3n1CCOC1CCOCC1)-c1csc(n1)[C@@H](N1CC3(COC3)C1)[C@H](NC(=O)C13CC(C1)[C@H](C)O3)C(=O)N1CCC[C@H](N1)C(=O)OCC(C)(C)C2 (racemic) [Example A420] | greater decrease in cell viability
< 1000 | CO[C@@H](C)c1ncc(C2CCN(C3CC3)CC2)cc1-c1c2c3cc(ccc3n1CCOC1CCOCC1)-c1csc(n1)[C@@H](N1CC3(COC3)C1)[C@H](NC(=O)C13CC(C1)[C@@H](C)O3)C(=O)N1CCC[C@H](N1)C(=O)OCC(C)(C)C2 (racemic) [Example A421] | greater decrease in cell viability
< 1000 | CO[C@@H](C)c1ncc(N2CCN(C3CC3)CC2)cc1-c1c2c3cc(ccc3n1CCOC1CCOCC1)-c1csc(n1)[C@@H](N1CC3(CCO3)C1)[C@H](NC(=O)[C@H]1[C@H](C)[C@@H]1C)C(=O)N1CCC[C@H](N1)C(=O)OCC(C)(C)C2 (racemic) [Example A422] | greater decrease in cell viability
< 1000 | CO[C@@H](C)c1ncc(N2CCN(C3CC3)CC2)cc1-c1c2c3cc(ccc3n1CCO[C@H]1CCOC(C)(C)C1)-c1csc(n1)[C@@H](N1CC3(COC3)C1)[C@H](NC(=O)[C@H]1[C@H](C)[C@@H]1C)C(=O)N1CC3CC(C3)(N1)C(=O)OCC(C)(C)C2 (racemic) [Example A423] | greater decrease in cell viability
< 1000 | CO[C@@H](C)c1ncc(N2CCN(C3CC3)CC2)cc1-c1c2c3cc(ccc3n1CCO[C@H]1CCOC(C)(C)C1)-c1csc(n1)[C@@H](N1CC3(COC3)C1)[C@H](NC(=O)[C@@H]1[C@@H](C)[C@H]1c1ccccn1)C(=O)N1CC3CC(C3)(N1)C(=O)OCC(C)(C)C2 (racemic) [Example A424] | greater decrease in cell viability
< 1000 | CO[C@@H](C)c1ncc(N2CCN(C3CC3)CC2)cc1-c1c2c3cc(ccc3n1CCOC1CCOCC1)-c1csc(n1)[C@@H](N1CCC1)[C@H](NC(=O)[C@@H]1[C@@H](C)[C@H]1c1ccccn1)C(=O)N1CCC[C@H](N1)C(=O)OCC(C)(C)C2 (racemic) [Example A425] | greater decrease in cell viability
< 1000 | COC1CN([C@@H]2c3nc(cs3)-c3ccc4c(c3)c(c(-c3cc(N5CCN(C6CC6)CC5)cnc3[C@H](C)OC)n4CCOC3CCOCC3)CC(C)(C)COC(=O)[C@@H]3CCCN(N3)C(=O)[C@H]2NC(=O)[C@@H]2[C@@H](C)[C@H]2c2ccncn2)C1 (racemic) [Example A426] | greater decrease in cell viability
< 1000 | COC1CN([C@@H]2c3nc(cs3)-c3ccc4c(c3)c(c(-c3cc(N5CCN(C6CC6)CC5)cnc3[C@H](C)OC)n4CCOC3CCOCC3)CC(C)(C)COC(=O)[C@@H]3CCCN(N3)C(=O)[C@H]2NC(=O)C23CC(C2)[C@H](C)O3)C1 (racemic) [Example A427] | greater decrease in cell viability
